# PubChem BioAssay AID602196 – INSERM | 2012
# Screen: 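Genes whose knock-down alters cisplatin killing of lung cancer cells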
# Cells: human A549 lung cancer cells
# Reagents: siRNA pair against human genes
# Time to read-out: 48 h transfection before cisplatin; time from cisplatin to read-out not stated
# Challenge: cisplatin at a dose killing half of control-siRNA cells; exact dose and duration not given
# Measured: 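Cisplatin cell death as a shift from the 50% death seen with control siRNA; siRNAs toxic or growth-blocking alone scored 0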
# Direction: two-siRNA summed score (-2 to +2): higher = both siRNAs protect from cisplatin killing; -2 means both sensitise; mean protection from cisplatin (shift in death) and protection from cisplatin (shift in death), siRNA C: higher = protection from cisplatin killing
# Rule for the call: 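siRNAs harmful alone (LDH or WST-1) get 0; others get +1 for less and -1 for more cisplatin killing; genes are active when the two siRNAs give the same sign, summing to ±2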
# Meaning of the calls: active = both siRNAs shift cisplatin killing the same way; inactive = no consistent shift, or siRNA harmful alone
# In all, the deposit lists about 23,000 reagents; shown is a part drawn at random. In the full data, 455 (2%) were called active. 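Active includes both protection and sensitisation; some change values fall well beyond the stated -50 to +50 range.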 Not all columns of the deposit are shown. Not given: the amount of reagent.
gene knocked down,two-siRNA summed score (-2 to +2),mean protection from cisplatin (shift in death) (%),"protection from cisplatin (shift in death), siRNA C (%)",outcome
HOXA2,-1,-0.1,17.2,inactive
HPS3,-1,-5.5,9.2,inactive
HPF1P1,0,15.1,0.2,inactive
ANKLE1,0,2.5,-0.6,inactive
LOC347487,0,3.4,-0.4,inactive
LOC402055,0,6.7,10.8,inactive
OR4K17,0,7.1,9.5,inactive
LRG1,0,5.5,14.3,inactive
FLJ20753,0,12.5,12.6,inactive
NHEJ1,0,-5.3,-2.9,inactive
LOC389803,0,17.1,-8.4,inactive
ESX1,-1,-12.6,-8.6,inactive
LDHC,0,-1.8,-5.5,inactive
TTC13,0,2,-5.2,inactive
DOK6,0,5,16.8,inactive
CABP7,0,1.4,16.4,inactive
LOC388652,1,13.5,10.4,inactive
PDE1A,0,5.3,12.4,inactive
H2AC21,1,25.6,41.2,inactive
TDP1,-1,-20.7,-17.1,inactive
CMKLR1,0,9.7,-6.7,inactive
LOC339760 (retired record),0,12.5,12.7,inactive
LOC442374,1,14.6,7.7,inactive
TMEM108,0,-9.3,-8.3,inactive
LOC400933,0,13.6,21,inactive
LOC390221,-1,-3.4,-12.6,inactive
ZNF567,0,1.6,6.9,inactive
CDCA3,0,-11.7,-10.9,inactive
ATL1,-1,-20.6,-34.5,inactive
LOC392434,0,6.9,-0.6,inactive
ZDHHC7,0,9.4,17.3,inactive
KRT79,0,15.1,28,inactive
FLJ44385 (retired record),0,6,3.4,inactive
RIMKLB,0,4.6,22.2,inactive
RIPK3,1,13.3,17.3,inactive
RHOT2,1,9.4,-1.9,inactive
LOC388358,1,16.6,23.7,inactive
LIN28B,0,-7.2,-5.7,inactive
HAO2,2,23.1,25.2,active
TPGS2,0,8.1,7.9,inactive
CHST10,0,5.7,-0.5,inactive
KCNMB3,0,-10.7,-20.9,inactive
FOXE3,0,-8.8,-8.2,inactive
IGFBP3,0,-1,-14.3,inactive
PRRT1,0,-0.3,1.7,inactive
FSTL5,0,2.2,12.9,inactive
LOC341370,1,10.6,27.2,inactive
SLC35F3,0,6.5,1.5,inactive
LOC442535,0,-0.7,-5.8,inactive
MARK3,1,16.8,28.5,inactive
LOC387872,0,13.2,13.7,inactive
CERS5,0,7,1.2,inactive
MBNL3,0,14.9,21.8,inactive
CCL21,-1,-10.1,-4,inactive
TOR2A,0,11.4,12.1,inactive
RFLNA,0,7.3,11.6,inactive
STAG2,0,6.5,-0.6,inactive

Reformatted: 8 of the entries above
| gene knocked down | two-siRNA summed score (-2 to +2) | mean protection from cisplatin (shift in death) (%) | protection from cisplatin (shift in death), siRNA C (%) | outcome |
| --- | --- | --- | --- | --- |
| LOC339760 (retired record) | 0 | 12.5 | 12.7 | inactive |
| LOC442374 | 1 | 14.6 | 7.7 | inactive |
| TMEM108 | 0 | -9.3 | -8.3 | inactive |
| LOC400933 | 0 | 13.6 | 21 | inactive |
| LOC390221 | -1 | -3.4 | -12.6 | inactive |
| ZNF567 | 0 | 1.6 | 6.9 | inactive |
| CDCA3 | 0 | -11.7 | -10.9 | inactive |
| ATL1 | -1 | -20.6 | -34.5 | inactive |
